Data as given in patent US20250283871A1, “COMPOSITIONS AND METHODS FOR MODULATING THE INTERACTION BETWEEN SS18-SSX FUSION ONCOPROTEIN AND NUCLEOSOMES” (Dana-Farber Cancer Institute, Inc., priority 2020, published 2025).

System: BAF complex subunits and histone proteins
Test: Mass spectrometry proteomics of purified HA-SS18 WT and HA-SS18-SSX1 complexes (Tables 5A-5E)
Parameters: species or system human
[1] = HA-SS18SSX1_CHR_peptides: protein identified in the HA-SS18-SSX1 purification from solubilized chromatin (CHR), HEK-293T
[2] = HA-SS18SSX1_NE_peptides: protein co-purified with HA-SS18-SSX1 BAF complexes from soluble nuclear extract (NE), HEK-293T cells
[3] = HA-SS18WT_CHR_peptides: protein identified in HA-SS18 WT BAF complex purification from nuclease-treated solubilized chromatin (CHR), HEK-293T
[4] = HA-SS18WT_CHR_peptides: HA-SS18 WT purification from nuclease-treated solubilized chromatin (CHR), HEK-293T, label = protein identified
[5] = HA-SS18WT_NE_peptides: proteins co-purified with HA-SS18 WT from nuclear extract (NE), HEK-293T
[6] = HA-SS18SSX1 purification, NE (soluble nuclear extract) fraction, HEK-293T, peptides per identified protein
[7] = HA-SS18WT_NE_peptides: HA-SS18 WT complexes purified from nuclear extract (NE), HEK-293T, label = protein identified (Gene Symbol)

Molecule	Total (total peptides) [1]	Unique (unique peptides) [1]	Total (peptides) [2]	Unique (peptides) [2]	Total (total peptides) [3]	Unique (unique peptides) [3]	Total (peptides) [4]	Unique (peptides) [4]	Total (peptides) [5]	Unique (peptides) [5]	Total (HA-SS18SSX1_CHR_peptides, total peptides of the identified protein)	Unique (HA-SS18SSX1_CHR_peptides, unique peptides of the identified protein)	Total (total peptides) [6]	Unique (unique peptides) [6]	Total (peptides) [7]	Unique (peptides) [7]
LEMD2 (protein, UniProt Q8NC56 2-503, looked up) LEM domain-containing protein …: AGLSDLELRRELQALGFQPGPITDTTRDVYRNKLRRLRGEARLRDEERLREEARPRGEERLREEARLREDAPLRARPAAASPRAEPWLSQPASGSAYATPGAYGDIRPSAASWVGSRGLAYPARPAQLRRRASVRGSSEEDEDARTPDRATQGPGLAARRWWAASPAPARLPSSLLGPDPRPGLRATRAGPAGAARARPEVGRRLERWLSRLLLWASLGLLLVFLGILWVKMGKPSAPQEAEDNMKLLPVDCERKTDEFCQAKQKAALLELLHELYNFLAIQAGNFECGNPENLKSKCIPVMEAQEYIANVTSSSSAKFEAALTWILSSNKDVGIWLKGEDQSELVTTVDKVVCLESAHPRMGVGCRLSRALLTAVTNVLIFFWCLAFLWGLLILLKYRWRKLEEEEQAMYEMVKKIIDVVQDHYVDWEQDMERYPYVGILHVRDSLIPPQSRRRMKRVWDRAVEFLASNESRIQTESHRVAGEDMLVWRWTKPSSFSDSER	10	8	2	2	2	2	–	–	–	–	–	–	–	–	–	–
HNRNPR (protein, UniProt O43390 2-633, looked up) Heterogeneous nuclear …: ANQVNGNAVQLKEEEEPMDTSSVTHTEHYKTLIEAGLPQKVAERLDEIFQTGLVAYVDLDERAIDALREFNEEGALSVLQQFKESDLSHVQNKSAFLCGVMKTYRQREKQGSKVQESTKGPDEAKIKALLERTGYTLDVTTGQRKYGGPPPDSVYSGVQPGIGTEVFVGKIPRDLYEDELVPLFEKAGPIWDLRLMMDPLSGQNRGYAFITFCGKEAAQEAVKLCDSYEIRPGKHLGVCISVANNRLFVGSIPKNKTKENILEEFSKVTEGLVDVILYHQPDDKKKNRGFCFLEYEDHKSAAQARRRLMSGKVKVWGNVVTVEWADPVEEPDPEVMAKVKVLFVRNLATTVTEEILEKSFSEFGKLERVKKLKDYAFVHFEDRGAAVKAMDEMNGKEIEGEEIEIVLAKPPDKKRKERQAARQASRSTAYEDYYYHPPPRMPPPIRGRGRGGGRGGYGYPPDYYGYEDYYDDYYGYDYHDYRGGYEDPYYGYDDGYAVRGRGGGRGGRGAPPPPRGRGAPPPRGRAGYSQRGAPLGPPRGSRGGRGGPAQQQRGRGSRGSRGNRGGNVGGKRKADGYNQPDSKRRQTNNQQNWGSQPIAQQPLQQGGDYSGNYGYNNDNQEFYQDTYGQQWK	9	9	1	1	–	–	5	5	1	1	–	–	–	–	–	–
CENPV (protein, UniProt Q7Z7K6 1-275, looked up) Centromere protein V: MRRSRSSAAAKLRGQKRSGASGASAAPAASAAAALAPSATRTRRSASQAGSKSQAVEKPPSEKPRLRRSSPRAQEEGPGEPPPPELALLPPPPPPPPTPATPTSSASNLDLGEQRERWETFQKRQKLTSEGAAKLLLDTFEYQGLVKHTGGCHCGAVRFEVWASADLHIFDCNCSICKKKQNRHFIVPASRFKLLKGAEHITTYTFNTHKAQHTFCKRCGVQSFYTPRSNPGGFGIAPHCLDEGTVRSMVTEEFNGSDWEKAMKEHKTIKNMSKE	10	8	–	–	2	1	6	5	1	1	1	1	–	–	–	–
CEBPZ (protein, UniProt Q03701 1-1054, looked up) CCAAT/enhancer-binding …: MAAVKEPLEFHAKRPWRPEEAVEDPDEEDEDNTSEAENGFSLEEVLRLGGTKQDYLMLATLDENEEVIDGGKKGAIDDLQQGELEAFIQNLNLAKYTKASLVEEDEPAEKENSSKKEVKIPKINNKNTAESQRTSVNKVKNKNRPEPHSDENGSTTPKVKKDKQNIFEFFERQTLLLRPGGKWYDLEYSNEYSLKPQPQDVVSKYKTLAQKLYQHEINLFKSKTNSQKGASSTWMKAIVSSGTLGDRMAAMILLIQDDAVHTLQFVETLVNLVKKKGSKQQCLMALDTFKELLITDLLPDNRKLRIFSQRPFDKLEQLSSGNKDSRDRRLILWYFEHQLKHLVAEFVQVLETLSHDTLVTTKTRALTVAHELLCNKPEEEKALLVQVVNKLGDPQNRIATKASHLLETLLCKHPNMKGVVSGEVERLLFRSNISSKAQYYAICFLNQMALSHEESELANKLITVYFCFFRTCVKKKDVESKMLSALLTGVNRAYPYSQTGDDKVREQIDTLFKVLHIVNFNTSVQALMLLFQVMNSQQTISDRYYTALYRKMLDPGLMTCSKQAMFLNLVYKSLKADIVLRRVKAFVKRLLQVTCQQMPPFICGALYLVSEILKAKPGLRSQLDDHPESDDEENFIDANDDEDMEKFTDADKETEIVKKLETEETVPETDVETKKPEVASWVHFDNLKGGKQLNKYDPFSRNPLFCGAENTSLWELKKLSVHFHPSVALFAKTILQGNYIQYSGDPLQDFTLMRFLDRFVYRNPKPHKGKENTDSVVMQPKRKHFIKDIRHLPVNSKEFLAKEESQIPVDEVFFHRYYKKVAVKEKQKRDADEESIEDVDDEEFEELIDTFEDDNCFSSGKDDMDFAGNVKKRTKGAKDNTLDEDSEGSDDELGNLDDDEVSLGSMDDEEFAEVDEDGGTFMDVLDDESESVPELEVHSKVSTKKSKRKGTDDFDFAGSFQGPRKKKRNLNDSSLFVSAEEFGHLLDENMGSKFDNIGMNAMANKDNASLKQLRWEAERDDWLHNRDAKSIIKKKKHFKKKRIKTTQKTKKQRK	9	9	–	–	–	–	5	5	–	–	–	–	4	4	5	5
MTA1 (protein, UniProt Q13330 1-715, looked up) Metastasis-associated protein …: MAANMYRVGDYVYFENSSSNPYLIRRIEELNKTANGNVEAKVVCFYRRRDISSTLIALADKHATLSVCYKAGPGADNGEEGEIEEEMENPEMVDLPEKLKHQLRHRELFLSRQLESLPATHIRGKCSVTLLNETESLKSYLEREDFFFYSLVYDPQQKTLLADKGEIRVGNRYQADITDLLKEGEEDGRDQSRLETQVWEAHNPLTDKQIDQFLVVARSVGTFARALDCSSSVRQPSLHMSAAAASRDITLFHAMDTLHKNIYDISKAISALVPQGGPVLCRDEMEEWSASEANLFEEALEKYGKDFTDIQQDFLPWKSLTSIIEYYYMWKTTDRYVQQKRLKAAEAESKLKQVYIPNYNKPNPNQISVNNVKAGVVNGTGAPGQSPGAGRACESCYTTQSYQWYSWGPPNMQCRLCASCWTYWKKYGGLKMPTRLDGERPGPNRSNMSPHGLPARSSGSPKFAMKTRQAFYLHTTKLTRIARRLCREILRPWHAARHPYLPINSAAIKAECTARLPEASQSPLVLKQAVRKPLEAVLRYLETHPRPPKPDPVKSVSSVLSSLTPAKVAPVINNGSPTILGKRSYEQHNGVDGNMKKRLLMPSRGLANHGQARHMGPSRNLLLNGKSYPTKVRLIRGGSLPPVKRRRMNWIDAPDDVFYMATEETRKIRKLLSSSETKRAARRPYKPIALRQSQALPPRPPPPAPVNDEPIVIED	9	9	–	–	–	–	3	3	–	–	–	–	–	–	–	–
NUP107 (protein, UniProt P57740 1-925, looked up) Nuclear pore complex protein …: MDRSGFGEISSPVIREAEVTRTARKQSAQKRVLLQASQDENFGNTTPRNQVIPRTPSSFRQPFTPTSRSLLRQPDISCILGTGGKSPRLTQSSGFFGNLSMVTNLDDSNWAAAFSSQRSGLFTNTEPHSITEDVTISAVMLREDDPGEAASMSMFSDFLQSFLKHSSSTVFDLVEEYENICGSQVNILSKIVSRATPGLQKFSKTASMLWLLQQEMVTWRLLASLYRDRIQSALEEESVFAVTAVNASEKTVVEALFQRDSLVRQSQLVVDWLESIAKDEIGEFSDNIEFYAKSVYWENTLHTLKQRQLTSYVGSVRPLVTELDPDAPIRQKMPLDDLDREDEVRLLKYLFTLIRAGMTEEAQRLCKRCGQAWRAATLEGWKLYHDPNVNGGTELEPVEGNPYRRIWKISCWRMAEDELFNRYERAIYAALSGNLKQLLPVCDTWEDTVWAYFRVMVDSLVEQEIQTSVATLDETEELPREYLGANWTLEKVFEELQATDKKRVLEENQEHYHIVQKFLILGDIDGLMDEFSKWLSKSRNNLPGHLLRFMTHLILFFRTLGLQTKEEVSIEVLKTYIQLLIREKHTNLIAFYTCHLPQDLAVAQYALFLESVTEFEQRHHCLELAKEADLDVATITKTVVENIRKKDNGEFSHHDLAPALDTGTTEEDRLKIDVIDWLVFDPAQRAEALKQGNAIMRKFLASKKHEAAKEVFVKIPQDSIAEIYNQCEEQGMESPLPAEDDNAIREHLCIRAYLEAHETFNEWFKHMNSVPQKPALIPQPTFTEKVAHEHKEKKYEMDFGIWKGHLDALTADVKEKMYNVLLFVDGGWMVDVREDAKEDHERTHQMVLLRKLCLPMLCFLLHTILHSTGQYQECLQLADMVSSERHKLYLVFSKEELRKLLQKLRESSLMLLDQGLDPLGYEIQL	9	9	–	–	–	–	5	5	1	1	–	–	–	–	–	–
DDX17 (protein, UniProt Q92841 1-729, looked up) Probable ATP-dependent RNA …: MPTGFVAPILCVLLPSPTREAATVASATGDSASERESAAPAAAPTAEAPPPSVVTRPEPQALPSPAIRAPLPDLYPFGTMRGGGFGDRDRDRDRGGFGARGGGGLPPKKFGNPGERLRKKKWDLSELPKFEKNFYVEHPEVARLTPYEVDELRRKKEITVRGGDVCPKPVFAFHHANFPQYVMDVLMDQHFTEPTPIQCQGFPLALSGRDMVGIAQTGSGKTLAYLLPAIVHINHQPYLERGDGPICLVLAPTRELAQQVQQVADDYGKCSRLKSTCIYGGAPKGPQIRDLERGVEICIATPGRLIDFLESGKTNLRRCTYLVLDEADRMLDMGFEPQIRKIVDQIRPDRQTLMWSATWPKEVRQLAEDFLRDYTQINVGNLELSANHNILQIVDVCMESEKDHKLIQLMEEIMAEKENKTIIFVETKRRCDDLTRRMRRDGWPAMCIHGDKSQPERDWVLNEFRSGKAPILIATDVASRGLDVEDVKFVINYDYPNSSEDYVHRIGRTARSTNKGTAYTFFTPGNLKQARELIKVLEEANQAINPKLMQLVDHRGGGGGGGGRSRYRTTSSANNPNLMYQDECDRRLRGVKDGGRRDSASYRDRSETDRAGYANGSGYGSPNSAFGAQAGQYTYGQGTYGAAAYGTSSYTAQEYGAGTYGASSTTSTGRSSQSSSQQFSGIGRSGQQPQPLMSQQFAQPPGATNMIGYMGQTAYQYPPPPPPPPPSRK	10	9	–	–	–	–	7	7	–	–	–	–	8	8	7	6
